Measured values: PMC10158032

The chains behind the UniProt entries cited, without tags or fusion partners. Where a name states a change or a piece, a line headed by the entry shows the natural chain unless it says otherwise. Residues count along the entry.
UniProt P14780: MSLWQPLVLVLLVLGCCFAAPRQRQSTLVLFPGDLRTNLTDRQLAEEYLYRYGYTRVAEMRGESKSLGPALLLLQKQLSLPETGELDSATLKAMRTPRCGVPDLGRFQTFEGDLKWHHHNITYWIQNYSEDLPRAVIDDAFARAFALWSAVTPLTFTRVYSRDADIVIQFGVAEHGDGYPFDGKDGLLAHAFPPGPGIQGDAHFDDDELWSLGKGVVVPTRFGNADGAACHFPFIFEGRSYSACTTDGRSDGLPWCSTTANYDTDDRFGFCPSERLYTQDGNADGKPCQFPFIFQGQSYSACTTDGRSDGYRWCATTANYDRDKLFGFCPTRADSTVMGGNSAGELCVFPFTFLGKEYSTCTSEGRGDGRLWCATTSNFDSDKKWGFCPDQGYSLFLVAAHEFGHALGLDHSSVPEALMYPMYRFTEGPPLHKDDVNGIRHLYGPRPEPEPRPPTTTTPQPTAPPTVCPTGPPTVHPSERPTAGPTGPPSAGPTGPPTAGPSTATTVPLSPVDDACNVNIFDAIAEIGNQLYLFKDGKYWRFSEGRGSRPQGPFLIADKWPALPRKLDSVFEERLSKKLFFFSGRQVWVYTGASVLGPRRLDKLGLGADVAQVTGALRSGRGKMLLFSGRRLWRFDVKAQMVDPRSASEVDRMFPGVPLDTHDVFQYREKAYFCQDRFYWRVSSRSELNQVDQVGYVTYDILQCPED
UniProt Q6UX06, residues 21-510: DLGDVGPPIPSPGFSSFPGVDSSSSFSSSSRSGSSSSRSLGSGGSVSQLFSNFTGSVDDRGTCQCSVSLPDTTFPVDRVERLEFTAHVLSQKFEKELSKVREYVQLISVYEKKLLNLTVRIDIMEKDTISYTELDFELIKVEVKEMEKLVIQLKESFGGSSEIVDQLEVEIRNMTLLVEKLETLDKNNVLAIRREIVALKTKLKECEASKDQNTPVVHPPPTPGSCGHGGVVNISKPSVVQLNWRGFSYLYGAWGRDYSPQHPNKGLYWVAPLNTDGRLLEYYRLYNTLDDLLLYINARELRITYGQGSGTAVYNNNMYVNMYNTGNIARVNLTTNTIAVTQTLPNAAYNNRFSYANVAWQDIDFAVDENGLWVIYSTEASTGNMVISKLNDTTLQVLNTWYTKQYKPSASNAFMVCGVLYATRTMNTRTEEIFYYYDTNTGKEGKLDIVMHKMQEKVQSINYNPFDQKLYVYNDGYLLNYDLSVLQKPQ

Assays:
[1] = biological target: Matrix metalloproteinase-9 (UniProt P14780); test: co-IP; in 293T cells; bait, antibodies and buffer not told
[2] = biological target: Matrix metalloproteinase-9 (UniProt P14780); test: co-IP; in HCT116 cells; bait, antibodies and buffer not told

Question: What does the source list for “Olfactomedin-4 (from UniProt Q6UX06 21-510)”?
Answer: binding [1]: binds; binding [2]: binds

These are yes or no findings as the source states them, for the method shown. Binding seen in cells or lysates may run through a third protein. A result given as binding can be weak or reduced; the word gives no strength.
